# Library compounds against nucleic acid targets

Targets (5′ to 3′):
PreQ1: PreQ1 riboswitch RNA pseudoknot, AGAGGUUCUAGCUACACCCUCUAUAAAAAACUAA. From B. subtilis. About 24,000 compounds screened, about 170 hits.
SAM-II: SAM-II riboswitch RNA pseudoknot, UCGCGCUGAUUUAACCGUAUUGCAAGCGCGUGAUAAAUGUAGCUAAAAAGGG. About 21,000 compounds screened, about 200 hits.
TPP: TPP riboswitch RNA three-way junction, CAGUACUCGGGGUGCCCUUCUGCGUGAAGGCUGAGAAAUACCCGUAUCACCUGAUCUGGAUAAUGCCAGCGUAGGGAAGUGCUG. About 24,000 compounds screened, about 160 hits.

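Compounds were printed on reactive glass slides in duplicate spots, a dye-labelled oligonucleotide was laid over them, and the fluorescence left after washing was read. For the PreQ1, TPP and SAM-II riboswitches the laboratory earlier reported (doi:10.1038/s41467-019-09493-3) 1 µM RNA, 2 h, and a rule that included a mean Z-score above 3 (spot signal-to-noise against the whole library), a score well above that on a control array, and duplicate spots agreeing (coefficient of variation under 100). The data file gives only the calls; its cut-offs may differ, and compounds hitting several targets are kept. These are primary screening calls, not affinities; a compound without a hit may have attached poorly or may still bind in solution.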
“yes” means called a hit, “no” means screened and not called a hit.
The compounds are a random part of those screened.
A target missing from an entry has no call listed here.

{"compound": "COc1cc(C2C(C(=O)c3ccccc3)=C(O)C(=O)N2CCN)ccc1O", "stereo": "stereo not shown", "PreQ1": "no", "SAM-II": "no", "TPP": "no"}
{"compound": "Cc1ccc(NC(=O)N2CCN(C(=O)c3nonc3N)CC2)cc1C", "PreQ1": "no", "TPP": "no"}
{"compound": "COc1ccc(CCNC2CC(=O)N(c3ccc(C)cc3)C2=O)cc1", "stereo": "stereo not shown", "PreQ1": "no", "SAM-II": "no", "TPP": "no"}
{"compound": "CC(CC(F)(F)F)NCCc1cnn(-c2ccccc2)c1", "stereo": "stereo not shown", "PreQ1": "no", "SAM-II": "no", "TPP": "no"}
{"compound": "CC(=O)Nc1cccc([As](=O)(c2cccc(NC(C)=O)c2)c2cccc(NC(C)=O)c2)c1", "PreQ1": "no", "SAM-II": "no", "TPP": "no"}
{"compound": "C#CCOc1ccc(C2CC(=O)Nc3nc(N)sc32)cc1OC", "stereo": "stereo not shown", "PreQ1": "no", "SAM-II": "no", "TPP": "no"}
{"compound": "COc1ccccc1[C@H]1C[C@@H](c2ccccc2Cl)Nc2nc(N)nn21", "PreQ1": "no", "SAM-II": "no", "TPP": "no"}
{"compound": "OCCCc1nc2ccccc2n1CC=Cc1ccccc1", "PreQ1": "no", "SAM-II": "no", "TPP": "no"}
{"compound": "Cn1c(Cn2cncn2)nnc1C1CCN(C(=O)Cn2nnnc2N)CC1", "PreQ1": "no", "SAM-II": "no", "TPP": "no"}
{"compound": "N[C@H]1CN(S(=O)(=O)c2ccc3[nH]c(=O)[nH]c3c2)C[C@@H]1c1ccccc1", "PreQ1": "yes", "SAM-II": "no", "TPP": "no"}
{"compound": "CCc1ccccc1OCCNCc1ccoc1", "PreQ1": "no", "SAM-II": "no", "TPP": "no"}
{"compound": "C[C@@]12OC(=O)[C@]1([C@@H](O)[C@@H]1C=CCCC1)NC(=O)[C@H]2CCCl", "PreQ1": "no", "SAM-II": "no", "TPP": "no"}
{"compound": "Cc1ccc(CC#N)c(-c2c(CC#N)ccc(C)c2C)c1C", "PreQ1": "no", "SAM-II": "no", "TPP": "no"}
{"compound": "Nc1nc2cc(-c3ccccc3CO)ccc2s1", "PreQ1": "no", "SAM-II": "no", "TPP": "no"}
{"compound": "O=C(NC(=S)Nc1cccc(O)c1)c1ccco1", "PreQ1": "no", "SAM-II": "no", "TPP": "no"}
{"compound": "Cc1ccc(S(=O)(=O)Nc2ccccc2CNc2c(C)cccc2C)cc1", "PreQ1": "no", "SAM-II": "no", "TPP": "no"}
{"compound": "O=C1CCCN1c1ccc(CNc2ncnc3c2CCNCC3)cc1", "PreQ1": "no", "SAM-II": "no", "TPP": "no"}
{"compound": "CCOc1ccc(NC(=O)c2c(N)sc3c2CCC(C(C)(C)C)C3)cc1", "stereo": "stereo not shown", "PreQ1": "no", "SAM-II": "no", "TPP": "no"}
{"compound": "CCc1ccc(CNc2ccc3c(c2)ncn3C(C)(C)C)cc1", "PreQ1": "no", "SAM-II": "no", "TPP": "no"}
{"compound": "N#Cc1ccccc1CN1CCC2(CCN(Cc3ncc[nH]3)CC2)C(CO)C1", "stereo": "stereo not shown", "PreQ1": "no", "SAM-II": "no", "TPP": "no"}
{"compound": "O=C(c1cc(CN2CCC(O)CC2)on1)N1CCCCC1c1ccccn1", "stereo": "stereo not shown", "PreQ1": "no", "SAM-II": "no", "TPP": "no"}
{"compound": "Cc1nn(-c2ccccc2)c(N)c1N=O", "PreQ1": "no", "SAM-II": "no", "TPP": "no"}
{"compound": "CCn1nc(C)c(C(C)NC(=O)CCc2cc3n(n2)CCCNC3)c1C", "stereo": "stereo not shown", "PreQ1": "no", "SAM-II": "no", "TPP": "no"}
{"compound": "CCOC(=O)C1CCCN(c2cc(Cl)nc(N)n2)C1", "stereo": "stereo not shown", "PreQ1": "no", "SAM-II": "no", "TPP": "no"}
{"compound": "OCC1CCCCN1CCn1cnnc1", "stereo": "stereo not shown", "PreQ1": "no", "SAM-II": "no", "TPP": "no"}
{"compound": "CCSc1ncc(CN(C)[C@@H]2CS(=O)(=O)C[C@H]2O)cn1", "PreQ1": "no", "SAM-II": "no", "TPP": "no"}
{"compound": "CCCNc1cc(C)nc2c(C)c(-c3ccc(OC)c(OC)c3)nn12", "PreQ1": "no", "TPP": "no"}
{"compound": "CCNC(=O)[C@@H]1C[C@H](N)CN1S(=O)(=O)c1ccc(-c2ccno2)o1", "PreQ1": "no", "SAM-II": "no", "TPP": "no"}
{"compound": "N#Cc1c(-c2cccc(Br)c2)cc(C2CC2)nc1N", "PreQ1": "no", "SAM-II": "no", "TPP": "no"}
{"compound": "CCOc1cccc(CN(CCO)C(=O)c2ccc(C3CCCNC3)cc2)c1", "stereo": "stereo not shown", "PreQ1": "no", "SAM-II": "no", "TPP": "no"}
{"compound": "CC1(C)CC(=O)C2=C(C1)OC(N)=C(C#N)C2C1CC=CCC1", "stereo": "stereo not shown", "PreQ1": "no", "SAM-II": "no", "TPP": "no"}
{"compound": "Cc1ccc(C(C)NC(=O)CNCc2ccc(S(N)(=O)=O)cc2)cc1", "stereo": "stereo not shown", "PreQ1": "no", "SAM-II": "no", "TPP": "no"}
{"compound": "CCCCNc1nc2c(c(=O)n(Cc3ccccc3)c(=O)n2C)n1C", "PreQ1": "no", "SAM-II": "no", "TPP": "no"}

From ROBIN, a set of small-molecule microarray screens (doi:10.1002/anie.202211358).